# Experimental data taken from US11022604B2, “Dock derived compound against laminin receptor (37 LR) and uses thereof” (Purdue Research Foundation, priority 2017, dated 2021).
# For at least one compound, name, drawing or mass did not settle the structure.
# What was measured:
# [1] = tested on: PC-3 cells; assay: Wound healing (scratch) assay; format: cell-based
# Procedure: PC-3 cells were treated with 1, 10, 50 μM C3 or DMSO control after scratch formation and images were recorded using a brightfield microscope as described in the methods. […] Brightfield images were quantified using the t-scratch program and represented as % scratch closure after 48 hours of migration compared to a 0 hour control (n=9, mean±SEM). A one-way ANOVA test was used for statistical analysis (p<0.05).
# Wound Healing Assay. PC-3 cells were seeded in 6 well plates at 3×10^5 cells per well in complete media until the cells reached confluency. Three horizontal and three vertical scratches were made in the confluent monolayers using a standard 200 μL pipette tip and cellular debris were removed by washing with 1×DPBS three times. 1×RPMI-1640 supplemented with C3 or DMSO was added and cells were incubated for 48 hours as described previously. […] Images were uploaded and analyzed for scratch geometry using the tscratch program (96). First, global thresholding was performed, then individual images were manually inspected for single image threshold adjustment and scratch geometries were quantified. […] The samples were analyzed using the Dionex UltiMate 3000 RSLC Nano System coupled to the Q Exactive™ HF Hybrid Quadrupole-Orbitrap MS (Thermo Scientific). […] Label free quantitation (LFQ) was performed using a minimum ratio count of 2 with fast LFQ. […]
# [2] = tested on: THP-1 human monocytes; assay: Inflammatory gene expression (qPCR) in LPS-stimulated THP-1 macrophages; format: cell-based
# Procedure: FIG. 17—Fold change in inflammatory gene expression when THP-1 monocytes are treated with Compounds of Interest. […] PL, PMA-differentiated and treated with LPS. P18, PEDF peptide. (*, p<0.05 relative to PL)
# Cell Culture. THP-1 human monocytes were purchased from ATCC (Manassas, Va.) and cultured in DMEM/10% FBS/1% Anti-Anti (Gibco). The monocytes were differentiated into macrophages with 5 ng/ml […] (PMA) for 48 h and pretreated with drugs for 6 h. Lipopolysaccharide (LPS, 10 ng/ml) stimulation was performed for 1 h and cells were collected for assays. Human adipose-derived mesenchymal stromal/stem cells (ASC) were purchased from LaCell, LLC (Metairie, La.) and grown on fibronectin-coated plates in MCDB-201/DMEM/10% FBS media. RNA isolation and qPCR. RNA was isolated from cell pellets using an RNAeasy kit (Qiagen) according to manufacturers' specifications for tissue samples. 1 μg RNA was reverse transcribed using a AmfiRivert kit (Genedepot) and 2 μl used in a SYBR green quantitative PCR reaction for detecting differences in gene expression relative to beta-actin control. Luciferase Assays. THP-1 human monocytes were seeded in OptiMEM/1% anti-anti (Gibco) and transfected using Lipofectamine LTX (Invitrogen, Carlsbad, Calif.) in a 96-well format in white opaque plates. […] The samples were read in a BiotekNeo (Bindley Bioscience Center). […]
# [3] = tested on: STAT3; assay: Luciferase reporter assays for IL1β regulation in THP-1; format: cell-based, human; details: THP-1, luciferase reporter plasmids
smiles,measurement,setting,value
"O=C(c1cc(F)cc2c1OCOC2)N1CCN(C2c3ccccc3-c3ccccc32)CC1 [Compound C3, [4-(9h-fluoren-9-yl)piperazino](6-fluoro-4h-1,3-benzodioxin-8-yl)methanone]",inhibition of cell migration in wound healing assay,"[1]; PC-3, 50 μM dose",sufficient to inhibit cell migration
same,scratch closure vs. DMSO,"[1]; PC-3, 1 and 10 μM, 48 hours",not significant
same,IL1β expression,"[2]; THP-1, LPS stimulus",downregulates IL1β expression even in the presence of strong LPS stimulus
same,IL-8 expression,"[2]; THP-1 macrophage culture, LPS",did not upregulate IL-8 to the extent of Kartogenin
same,STAT3 reporter activity,[3],downregulated
